Measured values: article PMC12615776
Results are given in words; binding and its absence hold for the method and conditions named. Some entries that bind do so weakly or less than the wild type.

Sequences of proteins named here, by UniProt entry; tags and fusion partners are left off. A change or cut given only in a name is not applied to a line headed by its entry. A line that says so, or that is headed by a name, gives the form on record, which may keep a tag or linker.
UniProt Q9H7D0: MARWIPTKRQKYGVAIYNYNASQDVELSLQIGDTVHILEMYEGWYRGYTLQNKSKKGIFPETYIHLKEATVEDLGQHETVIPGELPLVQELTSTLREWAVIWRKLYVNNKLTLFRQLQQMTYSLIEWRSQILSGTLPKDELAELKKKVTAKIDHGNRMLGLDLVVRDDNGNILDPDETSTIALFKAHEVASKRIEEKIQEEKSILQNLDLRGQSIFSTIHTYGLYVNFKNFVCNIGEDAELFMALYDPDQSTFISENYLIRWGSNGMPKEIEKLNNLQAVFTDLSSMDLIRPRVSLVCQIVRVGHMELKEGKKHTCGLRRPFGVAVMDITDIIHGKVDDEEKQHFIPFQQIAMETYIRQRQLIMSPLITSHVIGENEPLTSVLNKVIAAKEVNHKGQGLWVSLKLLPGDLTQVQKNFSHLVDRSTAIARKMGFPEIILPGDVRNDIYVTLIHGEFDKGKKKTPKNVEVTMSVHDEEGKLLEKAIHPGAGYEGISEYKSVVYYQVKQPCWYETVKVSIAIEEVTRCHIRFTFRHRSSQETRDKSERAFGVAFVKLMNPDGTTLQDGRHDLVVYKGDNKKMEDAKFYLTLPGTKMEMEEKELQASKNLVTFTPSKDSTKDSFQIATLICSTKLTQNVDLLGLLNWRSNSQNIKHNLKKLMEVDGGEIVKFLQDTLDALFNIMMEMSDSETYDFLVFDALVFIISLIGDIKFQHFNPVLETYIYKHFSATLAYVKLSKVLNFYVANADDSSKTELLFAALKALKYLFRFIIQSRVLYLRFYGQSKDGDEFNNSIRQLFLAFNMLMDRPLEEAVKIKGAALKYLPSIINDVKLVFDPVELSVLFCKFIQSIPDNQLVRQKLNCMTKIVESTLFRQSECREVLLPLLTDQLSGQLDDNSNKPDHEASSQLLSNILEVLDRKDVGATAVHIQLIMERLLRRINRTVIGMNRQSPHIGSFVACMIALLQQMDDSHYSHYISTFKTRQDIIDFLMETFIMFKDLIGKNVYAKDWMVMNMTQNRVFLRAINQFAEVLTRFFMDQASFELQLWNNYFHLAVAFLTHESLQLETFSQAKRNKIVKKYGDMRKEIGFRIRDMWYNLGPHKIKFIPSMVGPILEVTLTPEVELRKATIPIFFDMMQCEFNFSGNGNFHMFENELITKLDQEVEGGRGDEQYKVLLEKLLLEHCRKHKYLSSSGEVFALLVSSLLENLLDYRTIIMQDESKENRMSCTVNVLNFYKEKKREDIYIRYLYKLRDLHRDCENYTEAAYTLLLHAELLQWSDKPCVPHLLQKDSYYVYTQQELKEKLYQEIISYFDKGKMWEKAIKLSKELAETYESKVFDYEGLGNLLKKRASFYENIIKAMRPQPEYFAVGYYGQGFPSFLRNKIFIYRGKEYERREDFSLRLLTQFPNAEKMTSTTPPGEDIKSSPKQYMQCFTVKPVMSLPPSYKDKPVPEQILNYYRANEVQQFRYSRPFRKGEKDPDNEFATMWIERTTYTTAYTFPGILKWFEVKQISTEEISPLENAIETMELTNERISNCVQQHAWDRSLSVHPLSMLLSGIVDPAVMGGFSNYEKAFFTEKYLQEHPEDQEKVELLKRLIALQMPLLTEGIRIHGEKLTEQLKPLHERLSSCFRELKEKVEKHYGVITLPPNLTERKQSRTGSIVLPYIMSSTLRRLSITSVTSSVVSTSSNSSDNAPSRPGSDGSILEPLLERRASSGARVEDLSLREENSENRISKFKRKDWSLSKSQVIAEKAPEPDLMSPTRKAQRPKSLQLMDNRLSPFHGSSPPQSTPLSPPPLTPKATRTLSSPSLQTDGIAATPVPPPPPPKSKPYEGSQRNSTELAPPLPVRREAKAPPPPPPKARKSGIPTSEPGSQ
UniProt Q92556: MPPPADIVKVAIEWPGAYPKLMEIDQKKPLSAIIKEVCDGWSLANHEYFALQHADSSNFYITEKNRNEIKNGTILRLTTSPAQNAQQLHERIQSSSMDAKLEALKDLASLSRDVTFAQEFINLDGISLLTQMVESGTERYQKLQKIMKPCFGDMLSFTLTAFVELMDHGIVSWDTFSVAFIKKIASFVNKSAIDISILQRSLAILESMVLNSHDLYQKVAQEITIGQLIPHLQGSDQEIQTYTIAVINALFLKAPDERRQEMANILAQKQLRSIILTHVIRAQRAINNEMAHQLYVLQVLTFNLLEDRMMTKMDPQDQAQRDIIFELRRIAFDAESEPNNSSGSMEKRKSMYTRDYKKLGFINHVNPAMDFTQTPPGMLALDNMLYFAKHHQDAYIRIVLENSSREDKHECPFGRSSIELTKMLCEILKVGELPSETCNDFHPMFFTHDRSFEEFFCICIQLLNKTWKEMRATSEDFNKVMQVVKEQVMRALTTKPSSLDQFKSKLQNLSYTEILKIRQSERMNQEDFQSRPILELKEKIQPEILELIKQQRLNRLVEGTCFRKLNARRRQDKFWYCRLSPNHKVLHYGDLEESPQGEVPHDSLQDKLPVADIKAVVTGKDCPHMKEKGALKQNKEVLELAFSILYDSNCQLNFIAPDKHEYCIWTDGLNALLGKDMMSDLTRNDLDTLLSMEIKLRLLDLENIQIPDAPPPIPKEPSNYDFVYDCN
human ELMO1CTD VL1 mutant (R563A/R568A/R569A/R570A/K573A), N-terminal FLAG tag kept (Q92556, form named): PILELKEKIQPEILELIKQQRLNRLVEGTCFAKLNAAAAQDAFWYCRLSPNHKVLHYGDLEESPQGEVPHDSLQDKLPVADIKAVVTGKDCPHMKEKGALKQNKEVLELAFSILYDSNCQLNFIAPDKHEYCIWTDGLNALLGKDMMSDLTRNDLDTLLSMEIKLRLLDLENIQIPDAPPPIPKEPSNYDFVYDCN
human ELMO1CTD β3/β4 mutant (K584A/K607A), N-terminal FLAG tag kept (Q92556, form named): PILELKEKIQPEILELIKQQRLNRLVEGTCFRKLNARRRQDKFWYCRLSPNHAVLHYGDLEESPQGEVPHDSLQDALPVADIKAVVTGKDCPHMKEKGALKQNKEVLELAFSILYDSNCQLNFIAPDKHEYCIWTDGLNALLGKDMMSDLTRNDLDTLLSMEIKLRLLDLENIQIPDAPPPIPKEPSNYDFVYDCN

What was measured:
[1] = target: human DOCK5, full length (residues 1–1870), tags cleaved (human) (UniProt Q9H7D0); experiment: cryo-EM structure; purified DOCK5•ELMO1 complex mixed with a two-fold molar excess of Rac1^G15A-His10 and RhoG^Q61L-His10, pre-incubated on ice at least 1 h in 20 mM HEPES-NaOH pH 7.0, 150 mM NaCl, 1 mM MgCl2 (final 0.4 μM); bound to a lipid monolayer-coated grid [67PC/21PA/6PIP3/6DOGS-NTA Ni (mol%)]; single-particle analysis, C2, 6.98 Å (local 7.52 Å); both purified
[2] = target: human DOCK5 wild type with N-terminal FLAG and SBP tags kept (of the DOCK5•ELMO1CTD complex for the GEF assay) (human) (UniProt Q9H7D0); experiment: co-purification (affinity + SEC); FLAG-SBP-DOCK5 and FLAG-ELMO1CTD (wild type or mutant) co-expressed in FreeStyle 293-F cells; complex purified on Streptavidin Sepharose beads and by SEC (Superose 6; 20 mM HEPES-NaOH pH 8.0, 300 mM NaCl, 1 mM TCEP), tags not cut off
[3] = target: human DOCK5 hinge mutant (D1214A/E1215A) with N-terminal FLAG and SBP tags kept (human) (UniProt Q9H7D0); experiment: as above

Row | Substance | binding [1] | binding [2] | binding [3]
1 | human ELMO1, full length (residues 1–727), tag cleaved (from UniProt Q92556 1-727) | binds | – | –
2 | human ELMO1CTD VL1 mutant (R563A/R568A/R569A/R570A/K573A), N-terminal FLAG tag kept (from UniProt Q92556 532-727) (domain or fragment) | – | binds | –
3 | human ELMO1CTD wild type (residues 532–727), N-terminal FLAG tag kept (of the DOCK5•ELMO1CTD complex for the GEF assay) (from UniProt Q92556 532-727) (domain or fragment) | – | binds | binds
4 | human ELMO1CTD β3/β4 mutant (K584A/K607A), N-terminal FLAG tag kept (from UniProt Q92556 532-727) (domain or fragment) | – | binds | binds
